Test results reported in PubChem BioAssay AID1688 (National Center for Advancing Translational Sciences (NCATS), 2009).
About 2,400 (1.1%) of roughly 220,000 compounds were called active. The shares of active, inactive and inconclusive entries below differ from those in the screen. Calls come from the whole dose curve; as a rule, active = well fitted inhibition curve with a large enough effect; inconclusive = small, poorly fitted or top-dose-only effect, or effect the other way; inactive = no such curve, though single readings can be large or run the other way. Potencies beside an inconclusive call are fits to weak or partial responses and may not hold up.

Assay: qHTS Multiplex Assay to Identify Dual Action Probes in a Cell Model of Huntington: Aggregate Formation (GFP); note: nearly all actives have a fitted effect of over 60% in size
Settings: PC12 HttQ103-GFP aggregates, Acumen cytometry, 40 h; activity change, negative = inhibition: at 46.1 µM (top of the series) unless noted
How it was run: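 Compounds (qHTS titration) were added to PC12 cells expressing an ecdysone-driven HTT exon 1 Q103–GFP fusion after induction with 100 nM tebufenozide. Aggregate formation was measured as GFP objects in cell lysates.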
% is set by controls: 0 for no effect and ±100 for the full control effect; potency is the fitted concentration of half-maximal effect.

| Compound | Potency | activity change, negative = inhibition |
| --- | --- | --- |
| Cc1ccc(SCC2(O)CCN(S(=O)(=O)c3ccc(Cl)cc3)CC2)cc1 | inconclusive: 35.5 µM [inhibitor, single point] | – |
| CCN(CC)c1nc(OC)nc(-n2nnc(C(C)=O)c2C)n1 | inconclusive: 0.562 µM [activator, full curve, poor fit] | – |
| O=C(COc1ccc(S(=O)(=O)NC2CCCCC2)cc1)N1CCN(c2cccc(Cl)c2)CC1 | active: 15.8 µM | – |
| CN1/C(=C\C(=O)COC(=O)c2ccco2)C(C)(C)c2ccccc21 | inconclusive: 35.5 µM [inhibitor, single point] | – |
| CCCCn1c(=O)[nH]c2nc3cc(N)ccc3nc2c1=O | inactive | – |
| Cc1nc(N)sc1-c1csc(Nc2ncccn2)n1 | inconclusive: 25.1 µM [inhibitor, single point] | – |
| Cc1nn(Cc2ccc(F)cc2)c(C)c1NC(=O)c1noc2c1CCCCC2 | inconclusive: 12.6 µM [inhibitor, partial curve] | – |
| Cc1cc(C(=O)NCc2cc(C)n(C)n2)sc1-c1ccccc1 | inconclusive: 17.8 µM [inhibitor, partial curve, poor fit] | – |
| COc1ccc(C(=O)N2N=C(c3cccc(OC)c3)CC2(O)C(F)(F)F)cc1 (configuration not stated) | inconclusive: 14.1 µM [inhibitor, single point] | – |
| Cn1c2ccccc2c(=O)c2c(=O)n(C3CCCCC3)c(-c3ccco3)nc21 | inconclusive: 10 µM [inhibitor, single point] | – |
| Cn1c(=O)c2c(SCC(=O)NCC3CCCO3)nc(-c3cccs3)nc2n(C)c1=O (configuration not stated) | inconclusive: 0.316 µM [activator, partial curve] | – |
| C=CCn1c(CCNC(=O)c2ccc(Cl)c(Cl)c2)nnc1SCCOc1ccc(OC)cc1 | inconclusive: 15.8 µM [inhibitor, single point] | – |
| CC(=O)c1cccc(NC(=O)/C=C/c2ccc([N+](=O)[O-])s2)c1 | inconclusive: 35.5 µM [inhibitor, single point] | – |
| Cc1ccc(-c2csc3nnc(SCC(=O)Nc4cccc(C)n4)n23)cc1 | inconclusive: 3.55 µM [inhibitor, partial curve] | – |
| CN1CCN/C1=C(/C(Cl)=C(Cl)Cl)[N+](=O)[O-] | active: 15.8 µM | – |
| c1ccc(N2CCN(c3ccccc3)C2c2cccnc2)cc1 | inconclusive: 14.1 µM [inhibitor, single point] | – |
| CC(C)Cn1c(N)c(S(=O)(=O)c2cccs2)c2nc3ccccc3nc21 | inactive | – |
| COCc1c(C(=O)OC/C(O)=C(\C#N)c2nc3ccccc3[nH]2)oc2ccccc12 | inactive | – |
| O=C(O)c1cc2c(ccc3ccccc32)o1 | active: 17.8 µM | – |
| CN(c1ccc(C(=O)NCCSCc2ccccc2)cc1)S(=O)(=O)c1ccccc1 | inconclusive: 15.8 µM [inhibitor, single point] | – |
| COc1cccc(-c2nnc3sc(C4CCCCC4)nn23)c1 | active: 2 µM | – |
| COC(=O)C1=C(N)Oc2cc(C)n(Cc3cccnc3)c(=O)c2C1c1ccc(OC)c(OC)c1 (configuration not stated) | inconclusive: 14.1 µM [activator, single point] | – |
| Cc1ccc(-n2ncc3c(=O)n(CC#N)cnc32)cc1C | inactive | – |

| Compound | Potency | activity change, negative = inhibition |
| --- | --- | --- |
| COc1ccc(C(=O)Nc2ccc([N+](=O)[O-])cn2)cc1OC | inconclusive: 12.6 µM [activator, partial curve, poor fit] | – |
| CCOc1ccc(/C=N/OCC(=O)NCc2ccc3c(c2)OCO3)cc1OC | inconclusive: 2.82 µM [inhibitor, single point] | – |
| COc1n[nH]c(C(=O)Nc2cc(F)ccc2C)c1[N+](=O)[O-] | inconclusive: 12.6 µM [inhibitor, single point] | – |
| CC1OC(O[C@H]2CC[C@]3(C)C4C=C[C@]56OC[C@@]7(CC[C@@H](C)[C@H](C)C75)[C@H](O)C[C@@]6(C)[C@]4(C)CC[C@H]3C2(C)C)C(OC2OC(CO)C(O)C(O)C2OC2OCC(O)C(O)C2O)C(O)C1O (some centres not stated) | – | inactive: -35.9% [at 9.22 µM] |
| O=C(N/N=C/c1ccco1)C1CC1(c1ccccc1)c1ccccc1 (configuration not stated) | inconclusive: 3.16 µM [inhibitor, partial curve, poor fit] | – |
| O=C(NCCc1ccc(Cl)cc1)Nc1cccc(Cl)c1 | active: 8.91 µM | – |
| COc1ccc(C2/C=C\CN(C(=O)NC(C)C)CC(=O)N2Cc2ccc(F)cc2)cc1 (configuration not stated) | – | inactive: 0.599% [at 9.22 µM] |
| C=CCC(O)(CCN1CCCCC1)c1ccccc1 (configuration not stated) | inactive | – |
| O=C(CC(c1ccccc1)c1ccccc1)NCc1cccnc1 | inconclusive: 11.2 µM [inhibitor, partial curve] | – |
| CC(=O)Nc1ccc(N=C(C2=C(O)c3ccccc3C2=O)c2ccccc2)cc1 | inconclusive: 17.8 µM [inhibitor, single point] | – |
| CC(C)CC(COCc1ccc(C(F)(F)F)cc1)N1CCN(C(=O)c2ccc(C(F)(F)F)cc2)CCC1=O (configuration not stated) | inconclusive: 35.5 µM [inhibitor, single point] | – |
| COc1ccc(NC(=O)C(Br)C(C)C)cc1 (configuration not stated) | active: 0.891 µM | – |
| Cc1cccc(N2CCN(C(=O)C3CCN(S(=O)(=O)c4cccc5cccnc45)CC3)CC2C)c1 (configuration not stated) | inconclusive: 31.6 µM [inhibitor, single point] | – |
| COc1ccc(NC(=O)CC(c2ccccc2)c2ccco2)cc1 (configuration not stated) | inconclusive: 35.5 µM [inhibitor, single point] | – |
| CC(C)Cn1c(SCC(=O)N2CCc3ccccc3C2)nc2cc(Cl)ccc2c1=O | active: 10 µM | – |
| CC(C)CC(=O)Nc1cccc(-c2csc(-c3ccccc3)n2)c1 | inconclusive: 31.6 µM [inhibitor, single point] | – |
| CC(C)COc1ccc(C(=O)Nc2scc(-c3ccc(Cl)cc3Cl)c2C(N)=O)cc1 | inconclusive: 35.5 µM [inhibitor, single point] | – |
| Cc1cccc2sc(NC(=O)CN(C)S(=O)(=O)c3cccs3)nc12 | active: 15.8 µM | – |
| CCCCSc1nc(N)c(NC(=O)c2ccco2)c(=O)[nH]1 | inconclusive: 2.82 µM [activator, partial curve, poor fit] | – |
| CCOC(=O)c1ccc(N2C(=O)CC(SCC(=O)Nc3ccc(S(N)(=O)=O)cc3)C2=O)cc1 (configuration not stated) | inactive | – |
| CCCCC[C@H](O)/C=C/[C@H]1C=CC(=O)[C@@H]1C/C=C\CCCC(=O)O | inactive | – |
| Cc1ccc(S(=O)(=O)N(C)C(=O)NC(=O)NS(=O)(=O)c2ccccc2)cc1 | inconclusive: 5.62 µM [activator, single point] | – |
| COc1ccc(NC(=O)C2CCN(Cc3cnn(-c4ccccc4)c3-n3cccc3)CC2)cc1OC | inconclusive: 0.0891 µM [activator, partial curve, poor fit] | – |

| Compound | Potency | activity change, negative = inhibition |
| --- | --- | --- |
| CC(=O)Nc1nc2ccccc2n1Cc1ccccc1C | inconclusive: 3.16 µM [activator, single point] | – |
| Cc1nc2cc(NC(=O)c3ccc(N4C(=O)CCC4=O)cc3)ccc2s1 | inactive | – |
| Nc1c(C(=O)Nc2nc3ccccc3s2)sc2nc(-c3cccs3)ccc12 | inconclusive: 35.5 µM [inhibitor, single point] | – |
| Cc1c(NC(=S)NC(=O)c2sc3ccccc3c2Cl)cccc1C(=O)O | inconclusive: 22.4 µM [activator, single point] | – |
| O=C(Cn1c(=O)oc2cc(S(=O)(=O)N3CCCCC3)ccc21)N1CCc2ccccc21 | inconclusive: 35.5 µM [activator, single point] | – |
| CCCCn1c(SCC(=O)NCc2ccco2)nnc1-c1ccoc1C | inactive | – |
| CCOC(=O)c1cnc2nc(NCc3ccc(OC)c(OC)c3)[nH]n2c1=O | inactive | – |
| O=c1cc(O)c(-c2ccc(Cl)c(Cl)c2)c(Cl)[nH]1 | inconclusive: 35.5 µM [activator, single point] | – |
| Cc1cc(C(=O)CSc2nc(N)cc(=O)[nH]2)c(C)n1-c1ccc(OC(F)F)cc1 | inconclusive: 2.82 µM [inhibitor, full curve, poor fit] | – |
| CCOC(=O)C1(Cc2ccc(OC)cc2)CCN(C(=O)c2cc3ccccc3[nH]2)CC1 | inconclusive: 14.1 µM [inhibitor, single point] | – |
| COc1ccc(N2CCN(c3c(S(=O)(=O)c4ccccc4)cnc4ccc(OC)cc34)CC2)cc1 | inconclusive: 2.82 µM [inhibitor, partial curve] | – |
| O=C(CSc1nnc(Cn2nnc3ccccc32)o1)N(Cc1ccc(F)cc1)c1ccccc1 | active: 12.6 µM | – |
| CC(=O)N1CCc2cc(C(=O)CN3CCN(C(=O)c4ccco4)CC3)ccc21 | inactive | – |
| COC(=O)c1ccccc1OCCCOc1ccc(C)cc1OC | inconclusive: 35.5 µM [inhibitor, single point] | – |
| O=C(Nc1ccc2ccccc2c1)[C@@H]1C[C@H]1[C@@H](NP(=O)(c1ccccc1)c1ccccc1)c1ccccc1 | inactive | – |
| O=C(CSc1ncnc2[nH]ncc12)Nc1nc(-c2ccc(F)c(F)c2)cs1 | inconclusive: 35.5 µM [inhibitor, single point] | – |
| NC(=O)Cn1nnc(-c2ccc(CN3CCCCC3)cc2)n1 | – | inactive: 9.14% [at 9.22 µM] |
| CCCC(=O)Nc1cccc(NC(=O)c2ccc([N+](=O)[O-])cc2Cl)c1 | inconclusive: 15.8 µM [inhibitor, single point] | – |
| CCN(CC)S(=O)(=O)c1ccc2c3c(cccc13)C(=O)N2 | active: 1.58 µM | – |
| O=C(COc1cc(F)ccc1[N+](=O)[O-])Nc1ccc(N2CCOCC2)cc1 | inactive | – |
| COc1ccccc1C(=O)NNC(=O)c1nn(Cc2ccccc2)c(=O)c2ccccc12 | inconclusive: 35.5 µM [inhibitor, single point] | – |

For convenience, 15 of the compounds above:

| Compound | Potency | activity change, negative = inhibition |
| --- | --- | --- |
| CCOC(=O)c1cnc2nc(NCc3ccc(OC)c(OC)c3)[nH]n2c1=O | inactive | – |
| O=c1cc(O)c(-c2ccc(Cl)c(Cl)c2)c(Cl)[nH]1 | inconclusive: 35.5 µM [activator, single point] | – |
| Cc1cc(C(=O)CSc2nc(N)cc(=O)[nH]2)c(C)n1-c1ccc(OC(F)F)cc1 | inconclusive: 2.82 µM [inhibitor, full curve, poor fit] | – |
| CCOC(=O)C1(Cc2ccc(OC)cc2)CCN(C(=O)c2cc3ccccc3[nH]2)CC1 | inconclusive: 14.1 µM [inhibitor, single point] | – |
| COc1ccc(N2CCN(c3c(S(=O)(=O)c4ccccc4)cnc4ccc(OC)cc34)CC2)cc1 | inconclusive: 2.82 µM [inhibitor, partial curve] | – |
| O=C(CSc1nnc(Cn2nnc3ccccc32)o1)N(Cc1ccc(F)cc1)c1ccccc1 | active: 12.6 µM | – |
| CC(=O)N1CCc2cc(C(=O)CN3CCN(C(=O)c4ccco4)CC3)ccc21 | inactive | – |
| COC(=O)c1ccccc1OCCCOc1ccc(C)cc1OC | inconclusive: 35.5 µM [inhibitor, single point] | – |
| O=C(Nc1ccc2ccccc2c1)[C@@H]1C[C@H]1[C@@H](NP(=O)(c1ccccc1)c1ccccc1)c1ccccc1 | inactive | – |
| O=C(CSc1ncnc2[nH]ncc12)Nc1nc(-c2ccc(F)c(F)c2)cs1 | inconclusive: 35.5 µM [inhibitor, single point] | – |
| NC(=O)Cn1nnc(-c2ccc(CN3CCCCC3)cc2)n1 | – | inactive: 9.14% [at 9.22 µM] |
| CCCC(=O)Nc1cccc(NC(=O)c2ccc([N+](=O)[O-])cc2Cl)c1 | inconclusive: 15.8 µM [inhibitor, single point] | – |
| CCN(CC)S(=O)(=O)c1ccc2c3c(cccc13)C(=O)N2 | active: 1.58 µM | – |
| O=C(COc1cc(F)ccc1[N+](=O)[O-])Nc1ccc(N2CCOCC2)cc1 | inactive | – |
| COc1ccccc1C(=O)NNC(=O)c1nn(Cc2ccccc2)c(=O)c2ccccc12 | inconclusive: 35.5 µM [inhibitor, single point] | – |
